Binding data for one molecule are collected here from US20170122941A1.

Protein sequences, listed by entry. Tags and fused reporters are not part of them. Residues count along the entry.
UniProt P02769, residues 25-607: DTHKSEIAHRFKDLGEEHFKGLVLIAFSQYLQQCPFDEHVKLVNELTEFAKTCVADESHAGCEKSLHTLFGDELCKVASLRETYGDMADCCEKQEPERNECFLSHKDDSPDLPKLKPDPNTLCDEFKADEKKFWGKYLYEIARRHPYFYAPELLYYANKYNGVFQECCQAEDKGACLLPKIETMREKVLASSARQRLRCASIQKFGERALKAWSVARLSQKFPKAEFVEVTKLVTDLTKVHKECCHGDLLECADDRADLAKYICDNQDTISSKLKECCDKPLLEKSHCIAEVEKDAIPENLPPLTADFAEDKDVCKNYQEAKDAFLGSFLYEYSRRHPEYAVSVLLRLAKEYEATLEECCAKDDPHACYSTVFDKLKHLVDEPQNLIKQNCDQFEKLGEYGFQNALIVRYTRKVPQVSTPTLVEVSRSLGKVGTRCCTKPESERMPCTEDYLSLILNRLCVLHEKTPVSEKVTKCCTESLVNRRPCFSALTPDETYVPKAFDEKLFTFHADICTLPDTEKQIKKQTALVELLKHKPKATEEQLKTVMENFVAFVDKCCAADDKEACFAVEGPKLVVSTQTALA

Experiment [1] concerns the target bovine serum albumin (bovine) (UniProt P02769). Kind of experiment: SPR: purified BSA12 captured on immobilised BSA, 17 rounds with regeneration at pH 2.0.
Experiment [2] shares this target. Kind of experiment: SPR (Biacore 3000): 80 nM purified BSA12 captured on immobilised BSA in flow cell 1, surface regenerated with 10 mM glycine/HCl pH 2.0 after each cycle. On the technique in general: Surface plasmon resonance follows binding to a sensor surface in real time, without labels.

These are yes or no findings as the source states them, for the method shown. Some binding calls cover weakened binding; strength is not graded here.

B1: BSA12 (VHH)
VHH: QVKLEESGGGLVQVGDSLRLSCAASGRTFSNYTMAWFRQFPGKEREFVAVVSRGGGATDYADSVKGRFTISRDNAKNTMYLQMNSLKTEDTAVYYCAAGTDLSYYYSTKKWAYWGQGTQVTVSS
Consider B1, for which the binding entry in experiment [1] and in experiment [2] was “binds” in each case.
